Reference: publication PMC4821887, “Identification of chemicals that mimic transcriptional changes associated with autism, brain aging and neurodegeneration” (Nature Communications, 2016)
Further values from the same series stand in other lists.

Test system: mouse cortical cultures
Assay: RNA-seq differential expression (DESeq) against matched vehicle
Type: cell-based
Experimental: Figure 4 Cluster 2 chemicals alter expression of a common set of genes. […] RNA-seq was performed in quadruplicate after treating cortical cultures with fenamidone (10 μM) or pyraclostrobin (0.1 μM) for 24 h (n=3 biological replicates) and compared with matched vehicle controls using DESeq to detect differentially expressed genes, listed in Supplementary Data 4.
Cultures were treated with the non-cytotoxic dose of each chemical, by exchanging half of the original medium with chemicals at 2 × concentration in prewarmed feeding medium, on DIV 7 for 24 h in 12-well plates at a density of 5 × 10^5 cells per well. RNA was isolated using RNeasy plus mini kit (Cat. #74134, Qiagen). […]. Samples were further assessed for quality using either an Agilent Bioanalyzer 2100 or TapeStation 2200 to obtain a RIN. RIN values exceeding 7 were used for sequencing. RNA samples were used to generate and barcode complementary DNA libraries using the TruSeq RNA Library Preparation Kit at the UNC High Throughput Sequencing Facility. Pools of 24 multiplexed samples were sequenced per lane on an Illumina HiSeq 2500 using 50-bp paired-end reads.
RNA-seq reads were filtered using TagDust and aligned to the reference mouse genome (mm9) with TopHat using default parameters. Reads aligning to ribosomal RNA genes were removed. Transcript abundance was estimated by computing Reads per kilobase per million mapped reads (RPKM) using RefSeq gene models aggregated by gene symbol. For differential expression analyses, raw counts over RefSeq exons were used, and then were compared across samples using DESeq[62].

CSC1=N[C@@](C)(c2ccccc2)C(=O)N1Nc1ccccc1 [fenamidone]
MeanFenamidone (gene 1700071M16Rik): 47.8894 | log2FoldChange (gene 1700071M16Rik): 2.422 | log2FoldChange (gene 2810011L19Rik, Fenamidone vs vehicle, 4 reps, DESeq): -1.328 | MeanFenamidone (gene 2900097C17Rik): 879.595 | log2FoldChange (gene 2900097C17Rik): -0.9982 | MeanFenamidone (gene 3110035E14Rik): 65.6357 | log2FoldChange (gene 3110035E14Rik): -1.755 | MeanFenamidone (gene 6430548M08Rik): 247.802 | log2FoldChange (gene 6430548M08Rik): -1.08 | MeanFenamidone (gene 9330182L06Rik): 70.9287 | log2FoldChange (gene 9330182L06Rik): -1.747 | MeanFenamidone (gene AI836003): 86.4132 | log2FoldChange (gene AI836003): -1.311 | MeanFenamidone (gene Actn4): 967.177 | log2FoldChange (gene Actn4): 1.402 | MeanFenamidone (gene Adamtsl4): 38.54 | log2FoldChange (gene Adamtsl4): 2.1172 | MeanFenamidone (gene Adap1): 360.507 | log2FoldChange (gene Adap1): -1.033 | MeanFenamidone (gene Adrb2): 17.4007 | log2FoldChange (gene Adrb2): 3.316 | MeanFenamidone (gene Aen): 390.228 | log2FoldChange (gene Aen): 1.082 | MeanFenamidone (gene Ak2): 157.125 | log2FoldChange (gene Ak2): 1.256 | MeanFenamidone (gene Apc): 2359.22 | log2FoldChange (gene Apc): -0.9219 | MeanFenamidone (gene Aprt): 192.297 | log2FoldChange (gene Aprt): 1.154 | MeanFenamidone (gene Arpp21): 140.814 | log2FoldChange (gene Arpp21): -1.159 | MeanFenamidone (gene Arrb1): 548.072 | log2FoldChange (gene Arrb1): -1.083 | MeanFenamidone (gene B4galt6): 463.055 | log2FoldChange (gene B4galt6): -1.0721 | MeanFenamidone (gene Bai3): 137.634 | log2FoldChange (gene Bai3): -1.179 | MeanFenamidone (gene Cbr3): 44.5128 | log2FoldChange (gene Cbr3): 1.707 | MeanFenamidone (gene Ccsap): 35.8769 | log2FoldChange (gene Ccsap): -1.522 | MeanFenamidone (gene Cd97): 39.1853 | log2FoldChange (gene Cd97): 2.135 | MeanFenamidone (gene Cdon): 305.607 | log2FoldChange (gene Cdon): 1.499 | MeanFenamidone (gene Celf4): 572.155 | log2FoldChange (gene Celf4): -1.096 | MeanFenamidone (gene Chst3): 41.872 | log2FoldChange (gene Chst3): 2.262 | MeanFenamidone (gene Clcn4-2): 599.844 | log2FoldChange (gene Clcn4-2): -1.05 | MeanFenamidone (gene Cntnap4): 24.4827 | log2FoldChange (gene Cntnap4): -1.829 | MeanFenamidone (gene Col11a1): 277.951 | log2FoldChange (gene Col11a1): 2.141 | MeanFenamidone (gene Cplx2): 964.275 | log2FoldChange (gene Cplx2): -1.034 | MeanFenamidone (gene Dock1): 75.7001 | log2FoldChange (gene Dock1): 2.3295 | MeanFenamidone (gene Efhd2): 556.135 | log2FoldChange (gene Efhd2): 1.455 | MeanFenamidone (gene Ehd4): 134.926 | log2FoldChange (gene Ehd4): 1.8 | MeanFenamidone (gene Etnk1): 797.987 | log2FoldChange (gene Etnk1): -0.9999 | MeanFenamidone (gene Fgfr1): 608.087 | log2FoldChange (gene Fgfr1): 1.5897 | MeanFenamidone (gene Fkbp10): 165.125 | log2FoldChange (gene Fkbp10): 2.589 | MeanFenamidone (gene Fstl1): 2425.52 | log2FoldChange (gene Fstl1): 1.359 | MeanFenamidone (gene Gabra3): 93.5557 | log2FoldChange (gene Gabra3): -1.333 | MeanFenamidone (gene Gabrb3): 872.267 | log2FoldChange (gene Gabrb3): -1.093 | MeanFenamidone (gene Gdap1): 372.634 | log2FoldChange (gene Gdap1): -1.399 | MeanFenamidone (gene Glra2): 71.2829 | log2FoldChange (gene Glra2): -1.9081 | MeanFenamidone (gene Gm15800): 440.585 | log2FoldChange (gene Gm15800): -1.276 | MeanFenamidone (gene Gnai2): 1601.49 | log2FoldChange (gene Gnai2): 1.213 | MeanFenamidone (gene Golm1): 245.579 | log2FoldChange (gene Golm1): 1.156 | MeanFenamidone (gene Gpr85): 279.636 | log2FoldChange (gene Gpr85): -1.19 | log2FoldChange (gene Grin1os, Fenamidone vs vehicle, 4 reps, DESeq): -1.485 | MeanFenamidone (gene Grin2b): 174.034 | log2FoldChange (gene Grin2b): -1.02 | MeanFenamidone (gene Hexa): 230.395 | log2FoldChange (gene Hexa): 1.401 | MeanFenamidone (gene Hivep3): 95.1993 | log2FoldChange (gene Hivep3): -1.146 | MeanFenamidone (gene Hspa9): 701.159 | log2FoldChange (gene Hspa9): 1.0189 | MeanFenamidone (gene Icam5): 42.5122 | log2FoldChange (gene Icam5): -1.469 | MeanFenamidone (gene Ier3): 76.5943 | log2FoldChange (gene Ier3): 1.986 | MeanFenamidone (gene Ifi30): 63.8047 | log2FoldChange (gene Ifi30): 2.487 | MeanFenamidone (gene Igfbpl1): 247.504 | log2FoldChange (gene Igfbpl1): 1.858 | MeanFenamidone (gene Iqgap1): 327.406 | log2FoldChange (gene Iqgap1): 1.377 | MeanFenamidone (gene Jph4): 625.788 | log2FoldChange (gene Jph4): -1.023 | MeanFenamidone (gene Kcna1): 77.6206 | log2FoldChange (gene Kcna1): -1.838 | MeanFenamidone (gene Kcnma1): 80.7479 | log2FoldChange (gene Kcnma1): -1.359 | MeanFenamidone (gene Kit): 99.5781 | log2FoldChange (gene Kit): -1.188 | MeanFenamidone (gene Lrrn3): 288.813 | log2FoldChange (gene Lrrn3): -1.056 | MeanFenamidone (gene Lyrm9): 70.2085 | log2FoldChange (gene Lyrm9): -1.414 | MeanFenamidone (gene M6pr): 315.313 | log2FoldChange (gene M6pr): 1.239 | MeanFenamidone (gene Mcm2): 114.273 | log2FoldChange (gene Mcm2): 1.719 | MeanFenamidone (gene Mdga1): 167.86 | log2FoldChange (gene Mdga1): -1.06 | MeanFenamidone (gene Mpped2): 90.3666 | log2FoldChange (gene Mpped2): -1.244 | MeanFenamidone (gene Mybl1): 113.866 | log2FoldChange (gene Mybl1): 1.538 | MeanFenamidone (gene Ncdn): 819.17 | log2FoldChange (gene Ncdn): -1.031 | MeanFenamidone (gene Ncoa7): 93.6951 | log2FoldChange (gene Ncoa7): -1.263 | MeanFenamidone (gene Negr1): 666.87 | log2FoldChange (gene Negr1): -1.173 | MeanFenamidone (gene Nmnat2): 390.018 | log2FoldChange (gene Nmnat2): -0.988 | MeanFenamidone (gene Nnt): 111.731 | log2FoldChange (gene Nnt): 1.841 | MeanFenamidone (gene Nov): 293.986 | log2FoldChange (gene Nov): -1.234 | MeanFenamidone (gene Npcd): 1133.59 | log2FoldChange (gene Npcd): -0.9792 | MeanFenamidone (gene Nptxr): 1141.17 | log2FoldChange (gene Nptxr): -0.9956 | MeanFenamidone (gene Nsg1): 1494.54 | log2FoldChange (gene Nsg1): -1.041 | MeanFenamidone (gene Ostf1): 57.2673 | log2FoldChange (gene Ostf1): 1.821 | MeanFenamidone (gene Pak7): 178.228 | log2FoldChange (gene Pak7): -1.155 | MeanFenamidone (gene Palm2): 187.623 | log2FoldChange (gene Palm2): -1.363 | MeanFenamidone (gene Parva): 750.571 | log2FoldChange (gene Parva): 1.383 | MeanFenamidone (gene Pde4a): 55.8454 | log2FoldChange (gene Pde4a): -1.384 | MeanFenamidone (gene Pdgfrb): 65.7902 | log2FoldChange (gene Pdgfrb): 1.771 | MeanFenamidone (gene Peg3): 279.619 | log2FoldChange (gene Peg3): -1.034 | MeanFenamidone (gene Phgdh): 44.9863 | log2FoldChange (gene Phgdh): 1.982 | MeanFenamidone (gene Plekho2): 97.0143 | log2FoldChange (gene Plekho2): 1.704 | MeanFenamidone (gene Prkd1): 74.0866 | log2FoldChange (gene Prkd1): 1.635 | MeanFenamidone (gene Prnd): 68.3899 | log2FoldChange (gene Prnd): 1.64 | MeanFenamidone (gene Ptplad2): 79.5198 | log2FoldChange (gene Ptplad2): 1.728 | MeanFenamidone (gene Ptpn21): 106.524 | log2FoldChange (gene Ptpn21): 1.83 | MeanFenamidone (gene Ptrf): 984.866 | log2FoldChange (gene Ptrf): 1.966 | MeanFenamidone (gene Rabgap1l): 520.244 | log2FoldChange (gene Rabgap1l): -0.9736 | MeanFenamidone (gene Rhbdf2): 55.9763 | log2FoldChange (gene Rhbdf2): 2.006 | MeanFenamidone (gene Rnft2): 198.339 | log2FoldChange (gene Rnft2): -1.0831 | MeanFenamidone (gene S100a10): 278.258 | log2FoldChange (gene S100a10): 1.068 | MeanFenamidone (gene Scn8a): 153.907 | log2FoldChange (gene Scn8a): -1.48 | log2FoldChange (gene Serpinf1, Fenamidone vs vehicle, 4 reps, DESeq): 2.799 | MeanFenamidone (gene Serpinh1): 2145.01 | log2FoldChange (gene Serpinh1): 1.946 | MeanFenamidone (gene Shc1): 147.232 | log2FoldChange (gene Shc1): 1.966 | MeanFenamidone (gene Slc25a39): 313.662 | log2FoldChange (gene Slc25a39): 1.037 | MeanFenamidone (gene Slc27a1): 198.44 | log2FoldChange (gene Slc27a1): 1.347 | MeanFenamidone (gene Smad3): 210.504 | log2FoldChange (gene Smad3): 1.26 | MeanFenamidone (gene Sms): 203.977 | log2FoldChange (gene Sms): -1.141 | MeanFenamidone (gene Snn): 555.183 | log2FoldChange (gene Snn): -1.107 | MeanFenamidone (gene Socs2): 55.3192 | log2FoldChange (gene Socs2): -1.273 | MeanFenamidone (gene Spock2): 430.664 | log2FoldChange (gene Spock2): -1.232 | MeanFenamidone (gene Sub1): 393.998 | log2FoldChange (gene Sub1): -1.143 | MeanFenamidone (gene Sugp2): 179.582 | log2FoldChange (gene Sugp2): -1.2 | log2FoldChange (gene Svil, Fenamidone vs vehicle, 4 reps, DESeq): 1.812 | MeanFenamidone (gene Swap70): 110.479 | log2FoldChange (gene Swap70): 2.2944 | MeanFenamidone (gene Syde1): 107.171 | log2FoldChange (gene Syde1): 2.2079 | MeanFenamidone (gene Syngr3): 372.498 | log2FoldChange (gene Syngr3): -1.2027 | MeanFenamidone (gene Tmbim4): 87.3019 | log2FoldChange (gene Tmbim4): 1.412 | MeanFenamidone (gene Tmem43): 443.313 | log2FoldChange (gene Tmem43): 1.0765 | MeanFenamidone (gene Tmem178): 19.6533 | log2FoldChange (gene Tmem178): -2.302 | MeanFenamidone (gene Tmem178b): 158.718 | log2FoldChange (gene Tmem178b): -1.098 | MeanFenamidone (gene Tmtc3): 225.592 | log2FoldChange (gene Tmtc3): 1.144 | MeanFenamidone (gene Tnfrsf1a): 252.319 | log2FoldChange (gene Tnfrsf1a): 1.823 | MeanFenamidone (gene Usp29): 116.921 | log2FoldChange (gene Usp29): -1.148 | MeanFenamidone (gene Wnt9a): 104.914 | log2FoldChange (gene Wnt9a): 1.564 | MeanFenamidone (gene Zfp219): 222.222 | log2FoldChange (gene Zfp219): 1.4117
